Measured values as given in US20220256888A1, “COMPOSITIONS AND METHODS USING AT LEAST ONE OF OLEUROPEIN OR A METABOLITE THEREOF TO TREAT OR PREVENT MUSCLE FATIGUE FROM EXERCISE AND/OR FOR RESISTANCE TO MUSCLE FATIGUE FROM EXERCISE” (SOCIÉTÉ DES PRODUITS NESTLÉ S.A., priority 2019, published 2022).
Entries after “also recorded” stand apart in the source; their conditions may differ. For at least one compound, name, drawing or mass did not settle the structure.

How the values were obtained:
[1] = system: isolated adult mouse myofibers; assay: Mitochondrial calcium uptake in isolated adult mouse myofibers (4mtGCaMP6f, ex vivo); type: cell-based; settings: 60 mM caffeine three minutes after treatment, vs. control myofibers
[2] = system: isolated adult mouse myofibers; assay: Mitochondrial respiration in isolated adult mouse myofibers (XF24, ex vivo); type: cell-based; settings: caffeine stimulation; for ATP-synthase-dependent component of the respiration: oligomycin; for stimulated mitochondrial respiration (oxygen consumption rate): fibers treated 2 hours, vs. control myofibers
[3] = system: Hela cells; assay: Mitochondrial calcium elevation in histamine-stimulated Hela cells (mitochondrial aequorin); type: cell-based; settings: 10 μM, evoked by 100 μM histamine, vs. control cells, P<0.05
[4] = system: HSMM myotubes; assay: Mitochondrial calcium in caffeine-stimulated myotubes from human skeletal muscle myoblasts (HSMM); type: cell-based; settings: 10 μM, evoked by 5 mM caffeine, vs. control cells, P<0.05
[5] = system: C2C12-derived myotubes; assay: Mitochondrial calcium rise in caffeine-stimulated C2C12-derived myotubes; type: cell-based, mouse; settings: 50 μM oleuropein, evoked by 5 mM caffeine, vs. 0.5 mM calcium in the medium
[6] = system: C2C12-derived myotubes; assay: ATP production in C2C12-derived myotubes (luciferin/luciferase); type: cell-based, mouse; settings: 15 minutes incubation, then 5 mM caffeine for 10 minutes, vs. control cells, P<0.05
[7] = system: EDL (Extensor digitorum longus) muscle; assay: Fatigue protocol in isolated EDL muscle (ex vivo); design: species or system mice; settings: for resistance to fatigue (force reduction relative to the initial force): 10 μM for one hour, 120 tetanic contractions (100 Hz), vs. DMSO control

Structure (SMILES) | mitochondrial calcium uptake (mitochondrial calcium peak) ([1]; P<0.05) | ATP-synthase-dependent component of the respiration [2] | stimulated mitochondrial respiration (oxygen consumption rate) ([2]; P<0.05) | stimulated mitochondrial respiration (oxygen consumption rate) ([2]; P<0.05, listed as Hydroxytyrosol) | integrated mitochondrial calcium rise [3] | integrated mitochondrial calcium rise [4] | integrated mitochondrial calcium rise in calcium deficiency condition [5] | ATP production [6] | mitochondrial calcium uptake (mitochondrial calcium peak) ([1]; P<0.05, listed as Oleuropein) | stimulated mitochondrial respiration (oxygen consumption rate) ([2]; P<0.05, listed as Oleuropein) | resistance to fatigue (force reduction relative to the initial force) [7] | resistance to fatigue (force reduction relative to the initial force) ([7]; listed as Oleuropein) | force at the third, fourth and fifth tetanic stimulation ([7]; compared to control)
OCCc1ccc(O)c(O)c1 [hydroxytyrosol, 3,4-dihydroxyphenylethanol] | increases mitochondrial Calcium uptake | increases | increases | increases mitochondrial respiration |  |  |  |  |  |  |  |  | 
C/C=C1/[C@H](O[C@@H]2O[C@H](CO)[C@@H](O)[C@H](O)[C@H]2O)OC=C(C(=O)OC)[C@H]1CC(=O)OCCc1ccc(O)c(O)c1 [oleuropein] | increases mitochondrial calcium uptake | increases | increases |  | increases mitochondrial calcium elevation | activates mitochondrial calcium; also recorded: enhances mitochondrial calcium | rescues mitochondrial activation in calcium depletion condition; also recorded: rescues mitochondrial activation in calcium deficiency condition | increases ATP production | increases mitochondrial Calcium uptake | increases mitochondrial respiration | significantly slower force reduction during fatigue | increases resistance to fatigue | significantly higher
